Protein sequences, listed by entry. Tags and fused reporters are not part of them.
UniProt P03496: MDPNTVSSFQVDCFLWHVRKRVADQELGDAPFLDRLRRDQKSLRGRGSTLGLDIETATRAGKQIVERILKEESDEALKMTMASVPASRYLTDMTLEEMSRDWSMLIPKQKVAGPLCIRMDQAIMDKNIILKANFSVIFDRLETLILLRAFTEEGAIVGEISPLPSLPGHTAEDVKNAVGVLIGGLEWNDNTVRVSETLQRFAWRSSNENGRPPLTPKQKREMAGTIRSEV

In PMC6316800:

Molecular target: Influenza A virus non-structural protein 1 (NS1), strain A/Puerto Rico/8/1934(H1N1) (Influenza A virus A/Puerto Rico/8/1934(H1N1)) (UniProt P03496)
Assay: affinity purification with mass spectrometry

B1: Splicing factor, arginine/serine-rich 4 (protein, UniProt Q08170 1-494)
chain: MPRVYIGRLSYQARERDVERFFKGYGKILEVDLKNGYGFVEFDDLRDADDAVYELNGKDLCGERVIVEHARGPRRDGSYGSGRSGYGYRRSGRDKYGPPTRTEYRLIVENLSSRCSWQDLKDYMRQAGEVTYADAHKGRKNEGVIEFVSYSDMKRALEKLDGTEVNGRKIRLVEDKPGSRRRRSYSRSRSHSRSRSRSRHSRKSRSRSGSSKSSHSKSRSRSRSGSRSRSKSRSRSQSRSRSKKEKSRSPSKEKSRSRSHSAGKSRSKSKDQAEEKIQNNDNVGKPKSRSPSRHKSKSKSRSRSQERRVEEEKRGSVSRGRSQEKSLRQSRSRSRSKGGSRSRSRSRSKSKDKRKGRKRSREESRSRSRSRSKSERSRKRGSKRDSKAGSSKKKKKEDTDRSQSRSPSRSVSKEREHAKSESSQREGRGESENAGTNQETRSRSRSNSKSKPNLPSESRSRSKSASKTRSRSKSRSRSASRSPSRSRSRSHSRS
  binding: binds

B2: Ribosome biogenesis regulatory protein homolog (protein, UniProt Q15050 1-365)
chain: MEGQSVEELLAKAEQDEAEKLQRITVHKELELQFDLGNLLASDRNPPTGLRCAGPTPEAELQALARDNTQLLINQLWQLPTERVEEAIVARLPEPTTRLPREKPLPRPRPLTRWQQFARLKGIRPKKKTNLVWDEVSGQWRRRWGYQRARDDTKEWLIEVPGNADPLEDQFAKRIQAKKERVAKNELNRLRNLARAHKMQLPSAAGLHPTGHQSKEELGRAMQVAKVSTASVGRFQERLPKEKVPRGSGKKRKFQPLFGDFAAEKKNQLELLRVMNSKKPQLDVTRATNKQMREEDQEEAAKRRKMSQKGKRKGGRQGPGGKRKGGPPSQGGKRKGGLGGKMNSGPPGLGGKRKGGQRPGGKRRK
  binding: binds

B3: Splicing factor, arginine/serine-rich 19 (protein, UniProt Q9H7N4 1-1312)
chain: MEEEDESRGKTEESGEDRGDGPPDRDPTLSPSAFILRAIQQAVGSSLQGDLPNDKDGSRCHGLRWRRCRSPRSEPRSQESGGTDTATVLDMATDSFLAGLVSVLDPPDTWVPSRLDLRPGESEDMLELVAEVRIGDRDPIPLPVPSLLPRLRAWRTGKTVSPQSNSSRPTCARHLTLGTGDGGPAPPPAPSSASSSPSPSPSSSSPSPPPPPPPPAPPAPPAPRFDIYDPFHPTDEAYSPPPAPEQKYDPFEPTGSNPSSSAGTPSPEEEEEEEEEEEEEEEDEEEEEGLSQSISRISETLAGIYDDNSLSQDFPGDESPRPDAQPTQPTPAPGTPPQVDSTRADGAMRRRVFVVGTEAEACREGKVSVEVVTAGGAALPPPLLPPGDSEIEEGEIVQPEEEPRLALSLFRPGGRAARPTPAASATPTAQPLPQPPAPRAPEGDDFLSLHAESDGEGALQVDLGEPAPAPPAADSRWGGLDLRRKILTQRRERYRQRSPSPAPAPAPAAAAGPPTRKKSRRERKRSGEAKEAASSSSGTQPAPPAPASPWDSKKHRSRDRKPGSHASSSARRRSRSRSRSRSTRRRSRSTDRRRGGSRRSRSREKRRRRRRSASPPPATSSSSSSRRERHRGKHRDGGGSKKKKKRSRSRGEKRSGDGSEKAPAPAPPPSGSTSCGDRDSRRRGAVPPSIQDLTDHDLFAIKRTITVGRLDKSDPRGPSPAPASSPKREVLYDSEGLSGEERGGKSSQKDRRRSGAASSSSSSREKGSRRKALDGGDRDRDRDRDRDRDRSSKKARPPKESAPSSGPPPKPPVSSGSGSSSSSSSCSSRKVKLQSKVAVLIREGVSSTTPAKDAASAGLGSIGVKFSRDRESRSPFLKPDERAPTEMAKAAPGSTKPKKTKVKAKAGAKKTKGTKGKTKPSKTRKKVRSGGGSGGSGGQVSLKKSKADSCSQAAGTKGAEETSWSGEERAAKVPSTPPPKAAPPPPALTPDSQTVDSSCKTPEVSFLPEEATEEAGVRGGAEEEEEEEEEEEEEEEEEEQQPATTTATSTAAAAPSTAPSAGSTAGDSGAEDGPASRVSQLPTLPPPMPWNLPAGVDCTTSGVLALTALLFKMEEANLASRAKAQELIQATNQILSHRKPPSSLGMTPAPVPTSLGLPPGPSSYLLPGSLPLGGCGSTPPTPTGLAATSDKREGSSSSEGRGDTDKYLKKLHTQERAVEEVKLAIKPYYQKKDITKEEYKDILRKAVHKICHSKSGEINPVKVSNLVRAYVQRYRYFRKHGRKPGDPPGPPRPPKEPGPPDKGGPGLPLPPL
  binding: binds

B4: RRP12-like protein (protein, UniProt Q5JTH9 1-1297)
chain: MGRSGKLPSGVSAKLKRWKKGHSSDSNPAICRHRQAARSRFFSRPSGRSDLTVDAVKLHNELQSGSLRLGKSEAPETPMEEEAELVLTEKSSGTFLSGLSDCTNVTFSKVQRFWESNSAAHKEICAVLAAVTEVIRSQGGKETETEYFAALMTTMEAVESPESLAAVAYLLNLVLKRVPSPVLIKKFSDTSKAFMDIMSAQASSGSTSVLRWVLSCLATLLRKQDLEAWGYPVTLQVYHGLLSFTVHPKPKIRKAAQHGVCSVLKGSEFMFEKAPAHHPAAISTAKFCIQEIEKSGGSKEATTTLHMLTLLKDLLPCFPEGLVKSCSETLLRVMTLSHVLVTACAMQAFHSLFHARPGLSTLSAELNAQIITALYDYVPSENDLQPLLAWLKVMEKAHINLVRLQWDLGLGHLPRFFGTAVTCLLSPHSQVLTAATQSLKEILKECVAPHMADIGSVTSSASGPAQSVAKMFRAVEEGLTYKFHAAWSSVLQLLCVFFEACGRQAHPVMRKCLQSLCDLRLSPHFPHTAALDQAVGAAVTSMGPEVVLQAVPLEIDGSEETLDFPRSWLLPVIRDHVQETRLGFFTTYFLPLANTLKSKAMDLAQAGSTVESKIYDTLQWQMWTLLPGFCTRPTDVAISFKGLARTLGMAISERPDLRVTVCQALRTLITKGCQAEADRAEVSRFAKNFLPILFNLYGQPVAAGDTPAPRRAVLETIRTYLTITDTQLVNSLLEKASEKVLDPASSDFTRLSVLDLVVALAPCADEAAISKLYSTIRPYLESKAHGVQKKAYRVLEEVCASPQGPGALFVQSHLEDLKKTLLDSLRSTSSPAKRPRLKCLLHIVRKLSAEHKEFITALIPEVILCTKEVSVGARKNAFALLVEMGHAFLRFGSNQEEALQCYLVLIYPGLVGAVTMVSCSILALTHLLFEFKGLMGTSTVEQLLENVCLLLASRTRDVVKSALGFIKVAVTVMDVAHLAKHVQLVMEAIGKLSDDMRRHFRMKLRNLFTKFIRKFGFELVKRLLPEEYHRVLVNIRKAEARAKRHRALSQAAVEEEEEEEEEEEPAQGKGDSIEEILADSEDEEDNEEEERSRGKEQRKLARQRSRAWLKEGGGDEPLNFLDPKVAQRVLATQPGPGRGRKKDHGFKVSADGRLIIREEADGNKMEEEEGAKGEDEEMADPMEDVIIRNKKHQKLKHQKEAEEEELEIPPQYQAGGSGIHRPVAKKAMPGAEYKAKKAKGDVKKKGRPDPYAYIPLNRSKLNRRKKMKLQGQFKGLVKAARRGSQVGHKNRRKDRRP
  binding: binds

B5: Splicing factor, arginine/serine-rich 6 (protein, UniProt Q13247 1-344)
chain: MPRVYIGRLSYNVREKDIQRFFSGYGRLLEVDLKNGYGFVEFEDSRDADDAVYELNGKELCGERVIVEHARGPRRDRDGYSYGSRSGGGGYSSRRTSGRDKYGPPVRTEYRLIVENLSSRCSWQDLKDFMRQAGEVTYADAHKERTNEGVIEFRSYSDMKRALDKLDGTEINGRNIRLIEDKPRTSHRRSYSGSRSRSRSRRRSRSRSRRSSRSRSRSISKSRSRSRSRSKGRSRSRSKGRKSRSKSKSKPKSDRGSHSHSRSRSKDEYEKSRSRSRSRSPKENGKGDIKSKSRSRSQSRSNSPLPVPPSKARSVSPPPKRATSRSRSRSRSKSRSRSRSSSRD
  binding: binds

B6: Ribosomal RNA-processing protein 8 (protein, UniProt O43159 1-456)
chain: MFEEPEWAEAAPVAAGLGPVISRPPPAASSQNKGSKRRQLLATLRALEAASLSQHPPSLCISDSEEEEEERKKKCPKKASFASASAEVGKKGKKKCQKQGPPCSDSEEEVERKKKCHKQALVGSDSAEDEKRKRKCQKHAPINSAQHLDNVDQTGPKAWKGSTTNDPPKQSPGSTSPKPPHTLSRKQWRNRQKNKRRCKNKFQPPQVPDQAPAEAPTEKTEVSPVPRTDSHEARAGALRARMAQRLDGARFRYLNEQLYSGPSSAAQRLFQEDPEAFLLYHRGFQSQVKKWPLQPVDRIARDLRQRPASLVVADFGCGDCRLASSIRNPVHCFDLASLDPRVTVCDMAQVPLEDESVDVAVFCLSLMGTNIRDFLEEANRVLKPGGLLKVAEVSSRFEDVRTFLRAVTKLGFKIVSKDLTNSHFFLFDFQKTGPPLVGPKAQLSGLQLQPCLYKRR
  binding: binds

B7: Ribosomal RNA processing protein 1 homolog B (protein, UniProt Q14684 1-758)
chain: MAPAMQPAEIQFAQRLASSEKGIRDRAVKKLRQYISVKTQRETGGFSQEELLKIWKGLFYCMWVQDEPLLQEELANTIAQLVHAVNNSAAQHLFIQTFWQTMNREWKGIDRLRLDKYYMLIRLVLRQSFEVLKRNGWEESRIKVFLDVLMKEVLCPESQSPNGVRFHFIDIYLDELSKVGGKELLADQNLKFIDPFCKIAAKTKDHTLVQTIARGVFEAIVDQSPFVPEETMEEQKTKVGDGDLSAEEIPENEVSLRRAVSKKKTALGKNHSRKDGLSDERGRDDCGTFEDTGPLLQFDYKAVADRLLEMTSRKNTPHFNRKRLSKLIKKFQDLSEGSSISQLSFAEDISADEDDQILSQGKHKKKGNKLLEKTNLEKEKGSRVFCVEEEDSESSLQKRRRKKKKKHHLQPENPGPGGAAPSLEQNRGREPEASGLKALKARVAEPGAEATSSTGEESGSEHPPAVPMHNKRKRPRKKSPRAHREMLESAVLPPEDMSQSGPSGSHPQGPRGSPTGGAQLLKRKRKLGVVPVNGSGLSTPAWPPLQQEGPPTGPAEGANSHTTLPQRRRLQKKKAGPGSLELCGLPSQKTASLKKRKKMRVMSNLVEHNGVLESEAGQPQALGSSGTCSSLKKQKLRAESDFVKFDTPFLPKPLFFRRAKSSTATHPPGPAVQLNKTPSSSKKVTFGLNRNMTAEFKKTDKSILVSPTGPSRVAFDPEQKPLHGVLKTPTSSPASSPLVAKKPLTTTPRRRPRAMDFF
  binding: binds

B8: U3 small nucleolar RNA-interacting protein 2 (protein, UniProt O43818 1-475)
chain: MSATAAARKRGKPASGAGAGAGAGKRRRKADSAGDRGKSKGGGKMNEEISSDSESESLAPRKPEEEEEEELEETAQEKKLRLAKLYLEQLRQQEEEKAEARAFEEDQVAGRLKEDVLEQRGRLQKLVAKEIQAPASADIRVLRGHQLSITCLVVTPDDSAIFSAAKDCSIIKWSVESGRKLHVIPRAKKGAEGKPPGHSSHVLCMAISSDGKYLASGDRSKLILIWEAQSCQHLYTFTGHRDAVSGLAFRRGTHQLYSTSHDRSVKVWNVAENSYVETLFGHQDAVAALDALSRECCVTAGGRDGTVRVWKIPEESQLVFYGHQGSIDCIHLINEEHMVSGADDGSVALWGLSKKRPLALQREAHGLRGEPGLEQPFWISSVAALLNTDLVATGSHSSCVRLWQCGEGFRQLDLLCDIPLVGFINSLKFSSSGDFLVAGVGQEHRLGRWWRIKEARNSVCIIPLRRVPVPPAAGS
  binding: binds

B9: Ribosomal RNA-processing protein 7 homolog A (protein, UniProt Q9Y3A4 1-280)
chain: MVARRRKCAARDPEDRIPSPLGYAAIPIKFSEKQQASHYLYVRAHGVRQGTKSTWPQKRTLFVLNVPPYCTEESLSRLLSTCGLVQSVELQEKPDLAESPKESRSKFFHPKPVPGFQVAYVVFQKPSGVSAALALKGPLLVSTESHPVKSGIHKWISDYADSVPDPEALRVEVDTFMEAYDQKIAEEEAKAKEEEGVPDEEGWVKVTRRGRRPVLPRTEAASLRVLERERRKRSRKELLNFYAWQHRESKMEHLAQLRKKFEEDKQRIELLRAQRKFRPY
  binding: binds

Results are given in words; binding and its absence hold for the method and conditions named. Binding seen in cells or lysates may run through a third protein. Here binding means that the protein was enriched with, or labelled near, the bait; the list need not be complete.
